Assay results: patent publication US20250275535A1, “OLIVE TREE BIOMASS EXTRACT” (Veos Pharmaceuticals, S.L., priority 2024, published 2025)
For at least one compound, name, drawing or mass did not settle the structure.

System: bacterial growth
Experiment: Bacterial growth in seed incubation samples
Settings: 12 wt. % hydroxytyrosol solutions

Compound: OCCc1ccc(O)c(O)c1 [hydroxytyrosol]
- bacterial growth, compared to samples incubated in water (corn seed samples): inhibited bacterial growth
- bacterial growth, compared to samples incubated in water (sorghum seed samples): inhibited bacterial growth
